Whole data set: some 33,000 sequences, median “E-score (-0.5 to 0.5)” near -0.016, cut for the highest 2% near 0.3. Some of the results follow.
Biological target: T1, Yer184c (UniProt P39961)
T1 sequence: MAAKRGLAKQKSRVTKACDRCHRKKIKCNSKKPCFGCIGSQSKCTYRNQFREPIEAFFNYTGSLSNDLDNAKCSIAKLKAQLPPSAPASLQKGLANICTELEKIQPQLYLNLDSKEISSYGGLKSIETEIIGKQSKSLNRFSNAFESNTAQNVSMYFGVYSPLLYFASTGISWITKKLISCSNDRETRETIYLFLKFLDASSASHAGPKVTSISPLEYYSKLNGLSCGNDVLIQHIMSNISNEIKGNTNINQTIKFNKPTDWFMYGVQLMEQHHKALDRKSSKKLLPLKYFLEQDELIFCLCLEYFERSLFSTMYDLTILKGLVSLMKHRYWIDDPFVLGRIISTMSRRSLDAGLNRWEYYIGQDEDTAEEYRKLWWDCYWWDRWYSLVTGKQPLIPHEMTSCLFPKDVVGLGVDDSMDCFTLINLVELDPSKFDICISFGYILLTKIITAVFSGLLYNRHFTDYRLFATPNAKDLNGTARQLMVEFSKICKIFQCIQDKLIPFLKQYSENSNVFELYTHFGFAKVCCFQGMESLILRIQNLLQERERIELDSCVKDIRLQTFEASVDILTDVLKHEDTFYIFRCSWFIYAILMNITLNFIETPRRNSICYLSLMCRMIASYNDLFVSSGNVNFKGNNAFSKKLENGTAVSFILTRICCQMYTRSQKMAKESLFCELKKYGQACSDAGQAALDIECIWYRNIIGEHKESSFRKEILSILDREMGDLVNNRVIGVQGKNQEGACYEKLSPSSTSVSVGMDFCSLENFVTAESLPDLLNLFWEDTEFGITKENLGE
Assay: PBM E-score (8-mer binding enrichment) (E-score (-0.5 to 0.5)); higher = stronger / more preferred TF binding
Conditions: protein concentration: 100 nM; construct: GST-full length
Method in brief: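 Detection of bound protein used fluorescent anti-GST, with scans normalised by masliner. The proteins were GST-tagged yeast transcription factors applied at about 100-200 nM to universal all-10-mer Agilent arrays made double-stranded by primer extension. Each ungapped eight-base word, pooled with its reverse complement, was scored with an E-score from the Universal PBM Analysis Suite.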

Sequence | PBM E-score
TCGTAGCA | -0.00446
GTGTTAAC | 0.133
CGCCCACC | -0.202
GGAGAGAC | 0.0204
AGCTTGTA | 0.105
ATAAAGAT | 0.272
ACTTAGAC | 0.147
GCCCTACA | -0.132
ATTCCGAA | 0.388
CCCTATCG | -0.254
ATGGGAAC | -0.0715
ACTTAGTC | -0.109
AGAAAGGC | -0.0641
CGTATAGA | -0.0191
TCTAGCAA | 0.0828
CGTCCTTC | -0.0711
GCATCTAA | 0.0891
CACGGAAC | 0.349
GAGTGTTA | 0.126
ACTTTGAT | 0.0275
AAAGTACA | 0.0108
ACATCCAC | -0.0312
AGCCGTCC | 0.059
AAAAATAG | 0.241
AATGGTAC | -0.00404

Sequence | PBM E-score
GGTGCTGA | 0.00679
AGCTCCTA | -0.233
CTATGCGC | -0.104
AGTAAGCA | 0.0578
CAACCTTC | -0.155
GCTTTTCC | 0.109
TCTCGCAA | -0.0365
TCTGATCA | 0.123
GAGGGCTA | -0.23
GAGCATCA | -0.121
CATCCAGA | -0.157
CGTGGTGA | -0.139
CCACACAA | -0.109
ACTAGCAA | 0.0514
CGGCGCGA | 0.273
AGCCCACT | -0.258
ACCCGATA | 0.0212
ACGCGGAC | 0.015
CTTGTAGC | -0.00278
CCACGCCA | -0.217
GCTGGTAC | -0.0845
GTCGTAGA | -0.0563
AGCCCCCT | -0.395
CCGGGTCG | 0.218
ACGGTGCT | -0.203

Sequence | PBM E-score
CGGCAAGA | 0.317
GGCACTAA | 0.15
ACCGGATG | 0.307
AGGATGAT | -0.146
CGACGCGA | -0.0739
GGCATCCC | -0.352
GGCTCAGA | -0.0331
TCAAGTGA | -0.0206
CTACGGGC | -0.219
TCTCAGAA | 0.0627
CAATGCGC | -0.0114
TGGGAAAA | -0.0424
AATATTGA | 0.221
AAGCATTA | -0.00825
AGAACCTC | -0.107
TAATTGTA | 0.198
CTGGGGAA | -0.346
ATCATCAC | -0.0272
CCGTAGCG | 0.00212
ACACCGTA | -0.128
ACTTCGCA | -0.1
CCTCATCC | -0.196
CAGGTAGC | -0.0713
CAATCTCG | -0.011
GACGTATC | -0.125

Rewritten in markdown: entries from further up

| Sequence | PBM E-score |
| --- | --- |
| GCTTTTCC | 0.109 |
| TCTCGCAA | -0.0365 |
| TCTGATCA | 0.123 |

More entries.

Sequence | PBM E-score
AAGGACGA | -0.0189
GAATTCGC | 0.0958
ATGCTCCA | -0.0979
CGACGCCG | 0.239
AAAAGAGG | -0.172
GCTTTGAC | 0.123
AGGTATAC | 0.0468
ACCGGGCC | 0.298
ACCGACAC | 0.135
TAGTAGGA | -0.068
ACTAACAA | 0.0212
TCCAACAA | 0.00041
GACGTGCA | -0.0353
CCCTACCC | -0.256
AGATGACT | -0.185
AATATTCG | 0.0897
AGGCCTCG | -0.21
GCAAACGC | 0.0695
ATCGTCCC | -0.0809
GACCGAGA | 0.29
AACCTCGC | -0.135
CCCTCCAG | -0.328
GTTGCCGA | 0.373
AAGCGTCG | -0.106
CCTACGCA | -0.0765

Sequence | PBM E-score
TAACTTGA | 0.0926
GCCATCAA | -0.302
CGTCTTCC | -0.0931
AGCCTACT | -0.216
CTCCATTA | -0.189
AGGCAGCA | -0.0888
AAGGTGAT | -0.0112
CGTGCCAG | -0.125
AATATAAT | 0.15
CCGACGAC | 0.102
ACCACAAA | 0.172
CCTTAGAC | 0.00198
AACGGATG | 0.197
CGTCTACA | -0.19
CTCTCATA | -0.0704
GTTCGGTA | 0.29
TGGCCGAA | 0.295
ACTTTGTG | 0.0135
GTTACATA | 0.00737
ACCAAATA | 0.163
CGCCACGA | -0.138
GCCTGCAC | -0.19
ACGCGGGA | 0.0964
AGTCGCTC | -0.133
CAGCATTC | -0.0585

An excerpt from the list above, for reference:
Sequence | PBM E-score
CGTGCCAG | -0.125
AATATAAT | 0.15
CCGACGAC | 0.102
ACCACAAA | 0.172

Fetched one by one from the entries so far, two records:
Sequence | PBM E-score
AGTCGCTC | -0.133
CCGACGAC | 0.102

(further entries)

Sequence | PBM E-score
ATCTGAAC | 0.0885
ACTTCTGG | -0.132
CGATGCTA | 0.084
CATGACAC | -0.00895
CCAACATA | 0.163
CAAGTCTG | -0.185
CCCTAAGC | -0.298
CAGGGTGA | -0.199
CGTGCGCA | -0.0749
CCCCTACC | -0.269
ACAAAAAG | 0.135
GAAGTAGA | 0.15
ACAAGCAT | -0.052
ATGCTGAC | 0.0304
TCACTGCA | 0.164
TAAACGGA | 0.311
CGATGCTC | -0.035
AGCCACAG | -0.246
CGTTATGC | -0.0962
CTTACTGA | -0.0008
ATCTACAC | 0.0957
CCCGATAG | -0.177
ACTTTGTA | 0.0737
CGGCCTAC | 0.114
CAATTCCA | -0.0791

Sequence | PBM E-score
CATTGAAG | -0.102
TTAGCGAA | -0.0211
CGGCTCGC | 0.207
CAGCAAAC | 0.105
CCCTACTA | -0.0259
GATATGTA | 0.0416
CGATACGA | -0.0823
ACTTTTAT | 0.0269
TGGGTACA | -0.0284
TAGCGTGA | -0.119
AATAAGAT | 0.102
ATCATTTG | 0.078
GGGTAATA | 0.0677
CTGAATTA | 0.0697
CTGCTAGC | -0.168
AAATTACT | 0.196
AGCGCAAT | 0.00082
ACTAGGAC | -0.0895
AACTCTGA | 0.262
AGATCTTG | -0.0102
AACCAGAA | 0.0367
GAAAGTGA | 0.0574
CCGACCAC | 0.015
CAGAAAGC | 0.00441
AAGTCCGT | 0.149

Sequence | PBM E-score
GGTTTAAA | 0.141
ACGTCGAA | -0.0349
GTGCACAA | -0.028
ATTGTCTG | 0.197
AGTACCGC | -0.0677
ATGGTCGG | 0.0396
CTGCACTA | 0.109
AGGCATAA | -0.126
CAATATAG | 0.0222
CTTGTTCA | 0.0665
ATAACGAA | 0.166
CCGTACGG | -0.144
AAAGTATA | 0.101
ACAGTGGG | -0.249
CAGACCAA | 0.0961
ACCTCCGC | -0.054
CAAGGTTA | -0.0555
AATAATTG | -0.0857
CAAGCACA | -0.117
AGCGACCG | 0.185
AACGGCGG | 0.0499
CAACAGGG | -0.0372
GAATTAGC | 0.00904
AGAAGTAC | -0.149
AAAGTAAT | 0.156

Sequence | PBM E-score
GAGATCAC | -0.108
TGCGCAAA | 0.179
AACACACA | 0.094
TCACAGCA | 0.0456
GTCGTGAA | -0.192
TGCCAGCA | 0.0202
GCGGTACC | 0.132
AACGGCCC | -0.0656
CCAGAAAA | 0.0329
CTAATGAC | -0.212
CCGTGGTA | 0.00359
CATCATAA | 0.122
CCGATAGA | 0.0996
CCTTTAGA | -0.0913
CAACAACG | 0.0241
CAGTAAAA | 0.195
ATCGTGAA | 0.0467
ACGGTATC | 0.122
TAAGAATA | -0.0312

Reference: the supplement of paper PMC3334620
